These are yes or no findings as the source states them, for the method shown. Binding seen in cells or lysates may run through a third protein. A yes stands for co-enrichment or nearness to the bait. Other partners may have been found.

Amino acid sequences for entries named in this document (tags omitted). A change or cut given only in a name is not applied to a line headed by its entry. Chains listed by the source or under a name are the forms on record and can include a tag or linker.
UniProt P62491: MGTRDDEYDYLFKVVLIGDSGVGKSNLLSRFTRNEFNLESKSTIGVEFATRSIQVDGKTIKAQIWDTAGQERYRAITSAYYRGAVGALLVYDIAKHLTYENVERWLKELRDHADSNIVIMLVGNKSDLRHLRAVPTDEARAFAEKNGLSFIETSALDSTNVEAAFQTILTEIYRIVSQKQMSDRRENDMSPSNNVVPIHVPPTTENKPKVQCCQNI
FGFR2b-HA-APEX2 (P21802-3, form named): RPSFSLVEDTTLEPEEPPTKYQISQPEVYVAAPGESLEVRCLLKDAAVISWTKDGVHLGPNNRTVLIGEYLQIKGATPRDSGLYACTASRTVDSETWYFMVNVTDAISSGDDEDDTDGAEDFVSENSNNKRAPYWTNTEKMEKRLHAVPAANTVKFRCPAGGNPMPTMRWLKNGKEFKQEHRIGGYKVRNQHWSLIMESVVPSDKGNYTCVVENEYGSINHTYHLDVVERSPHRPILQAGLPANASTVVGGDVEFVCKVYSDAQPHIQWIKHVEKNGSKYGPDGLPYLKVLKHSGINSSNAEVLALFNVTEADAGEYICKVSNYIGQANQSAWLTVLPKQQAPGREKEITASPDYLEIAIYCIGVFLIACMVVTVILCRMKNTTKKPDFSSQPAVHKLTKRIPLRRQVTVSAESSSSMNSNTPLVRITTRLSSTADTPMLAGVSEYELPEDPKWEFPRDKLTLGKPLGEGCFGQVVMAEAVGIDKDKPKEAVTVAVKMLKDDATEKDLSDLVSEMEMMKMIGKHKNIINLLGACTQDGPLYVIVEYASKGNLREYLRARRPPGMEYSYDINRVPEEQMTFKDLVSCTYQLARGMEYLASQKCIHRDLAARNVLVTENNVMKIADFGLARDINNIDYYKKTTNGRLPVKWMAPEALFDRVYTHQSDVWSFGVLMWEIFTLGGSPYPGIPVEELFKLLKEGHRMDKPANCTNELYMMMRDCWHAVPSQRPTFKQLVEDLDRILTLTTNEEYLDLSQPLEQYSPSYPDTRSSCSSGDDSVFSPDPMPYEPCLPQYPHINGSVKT
UniProt Q8N122: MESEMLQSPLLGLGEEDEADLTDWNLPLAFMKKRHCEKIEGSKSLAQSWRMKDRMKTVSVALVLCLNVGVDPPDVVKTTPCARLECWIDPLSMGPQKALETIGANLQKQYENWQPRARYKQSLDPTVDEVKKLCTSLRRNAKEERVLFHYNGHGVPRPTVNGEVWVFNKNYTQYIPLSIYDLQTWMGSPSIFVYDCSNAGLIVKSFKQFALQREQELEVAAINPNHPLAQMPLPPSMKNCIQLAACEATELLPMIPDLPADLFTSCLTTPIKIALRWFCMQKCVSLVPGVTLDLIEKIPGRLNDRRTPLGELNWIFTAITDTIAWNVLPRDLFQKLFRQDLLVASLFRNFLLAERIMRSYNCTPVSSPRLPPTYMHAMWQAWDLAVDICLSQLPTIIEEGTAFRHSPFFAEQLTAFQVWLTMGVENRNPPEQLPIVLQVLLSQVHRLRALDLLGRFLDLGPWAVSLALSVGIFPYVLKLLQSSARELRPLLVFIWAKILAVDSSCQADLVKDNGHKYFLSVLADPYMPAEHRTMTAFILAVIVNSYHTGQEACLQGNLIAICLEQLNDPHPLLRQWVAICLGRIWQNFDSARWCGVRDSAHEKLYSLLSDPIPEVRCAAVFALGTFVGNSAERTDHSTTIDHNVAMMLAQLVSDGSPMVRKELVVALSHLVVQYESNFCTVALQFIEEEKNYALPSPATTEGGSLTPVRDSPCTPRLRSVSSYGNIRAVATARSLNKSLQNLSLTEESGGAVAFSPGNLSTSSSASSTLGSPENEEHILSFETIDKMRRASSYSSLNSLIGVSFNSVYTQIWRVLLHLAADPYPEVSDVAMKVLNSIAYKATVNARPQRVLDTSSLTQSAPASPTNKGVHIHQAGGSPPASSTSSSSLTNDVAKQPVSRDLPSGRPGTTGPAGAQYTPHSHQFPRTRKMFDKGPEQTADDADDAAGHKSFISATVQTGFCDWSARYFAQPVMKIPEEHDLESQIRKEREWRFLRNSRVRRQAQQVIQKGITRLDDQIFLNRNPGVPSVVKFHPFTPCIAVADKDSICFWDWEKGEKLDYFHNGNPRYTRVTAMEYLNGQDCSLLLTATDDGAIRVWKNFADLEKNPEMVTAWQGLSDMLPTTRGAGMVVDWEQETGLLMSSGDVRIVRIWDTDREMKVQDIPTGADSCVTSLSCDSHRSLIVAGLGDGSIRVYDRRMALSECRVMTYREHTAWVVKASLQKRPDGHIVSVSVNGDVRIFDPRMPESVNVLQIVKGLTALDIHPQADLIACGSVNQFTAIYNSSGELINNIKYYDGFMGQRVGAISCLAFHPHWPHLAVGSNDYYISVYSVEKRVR

Drawing on paper PMC9633600, this text covers binding for 2 substances.

Assay [1] has as its target eGFP-RAB11-APEX2 (UniProt P62491). Put plainly: proximity labelling; Spatially Resolved Phosphoproteomics in HeLa cells: APEX2 biotinylation (biotin-phenol 40 min, H2O2 1 min), streptavidin beads 2 h RT, digestion, TiO2 enrichment of phosphorylated peptides, LC-MS/MS; untreated or FGF10 100 ng/mL 40 min; normalised against GFP-APEX2 samples.
For assay [2] the target is unchanged. Put plainly: proximity labelling; APEX2 fused to the bait in living cells; biotin-phenol 40 min, H2O2 1 min, quenched with Trolox and sodium ascorbate; streptavidin beads pull-down 2 h RT; bound proteins immunoblotted against supernatant and total lysate; cells untreated or FGF10 100 ng/mL for 1, 8 or 40 min. For orientation: In western blotting, separated proteins are transferred to a membrane and probed.

A further assay addresses FGFR2b-HA-APEX2 (UniProt P21802). In words: proximity labelling; Spatially Resolved Phosphoproteomics in HeLa cells: APEX2 biotinylation (biotin-phenol 40 min, H2O2 1 min), streptavidin beads 2 h RT, digestion, TiO2 enrichment of phosphorylated peptides, LC-MS/MS; untreated or FGF10 100 ng/mL 40 min; normalised against GFP-APEX2 samples.

With “HA-FGFR2b (from UniProt P21802-3 22-822) (receptor)”, the binding result in the assay with eGFP-RAB11-APEX2 [1] and with eGFP-RAB11-APEX2 [2] was “binds” in each case.

Take “RPTOR phosphorylated at S863 (from UniProt Q8N122 1-1335)”: the binding entry with FGFR2b-HA-APEX2, with eGFP-RAB11-APEX2 [1] and with eGFP-RAB11-APEX2 [2] was “binds” in each case.
